This assay concerns the target wild-type human APP (APP770 isoform) stably overexpressed in CHO-PS70 cells (human) (UniProt P05067). Nature of the assay: co-IP; extracts (50 μL) of CHO-PS70 cells transfected with LRP3-flag incubated 2.5 h at room temperature with magnetic beads coupled to an anti-C-terminal APP antibody; rabbit IgG as negative control; input, bound and unbound fractions blotted.

Chains of the proteins cited; added tags and fusions are not shown. Residues count along the entry.
UniProt P05067, residues 18-770: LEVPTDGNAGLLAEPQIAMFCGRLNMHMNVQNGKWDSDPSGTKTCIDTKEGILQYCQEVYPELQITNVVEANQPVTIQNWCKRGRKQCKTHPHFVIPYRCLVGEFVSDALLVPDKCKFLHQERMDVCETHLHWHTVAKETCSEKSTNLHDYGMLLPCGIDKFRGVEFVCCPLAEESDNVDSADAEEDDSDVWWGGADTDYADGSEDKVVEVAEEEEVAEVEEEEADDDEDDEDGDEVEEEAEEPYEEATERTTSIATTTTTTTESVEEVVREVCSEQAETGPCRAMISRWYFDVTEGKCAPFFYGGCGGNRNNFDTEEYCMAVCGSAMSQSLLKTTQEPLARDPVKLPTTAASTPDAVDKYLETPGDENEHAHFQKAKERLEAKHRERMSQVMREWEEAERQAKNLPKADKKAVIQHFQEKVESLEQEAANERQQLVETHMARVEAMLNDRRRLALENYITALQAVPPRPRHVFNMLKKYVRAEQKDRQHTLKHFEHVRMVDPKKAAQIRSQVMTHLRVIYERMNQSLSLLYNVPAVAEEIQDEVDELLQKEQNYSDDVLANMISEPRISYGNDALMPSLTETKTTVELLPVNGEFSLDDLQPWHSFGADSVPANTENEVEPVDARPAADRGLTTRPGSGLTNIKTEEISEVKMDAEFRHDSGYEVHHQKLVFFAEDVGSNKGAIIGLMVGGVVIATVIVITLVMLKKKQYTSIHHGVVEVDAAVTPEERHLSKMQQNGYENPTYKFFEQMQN

No constants are given. Whether binding was seen depends on the method and setting. In cells and extracts the contact can be indirect. Some entries that bind do so weakly or less than the wild type. Where a sequence is shown, tags or fusion partners need not be part of it.

B1: 3×FLAG-LRP3 (full-length human LRP3) in CHO-PS70 cells (receptor, UniProt O75074 37-770)
chain: VPALAACSGKLEQHTERRGVIYSPAWPLNYPPGTNCSWYIQGDRGDMITISFRNFDVEESHQCSLDWLLLGPAAPPRQEAFRLCGSAIPPAFISARDHVWIFFHSDASSSGQAQGFRLSYIRGKLGQASCQADEFRCDNGKCLPGPWQCNTVDECGDGSDEGNCSAPASEPPGSLCPGGTFPCSGARSTRCLPVERRCDGLQDCGDGSDEAGCPDLACGRRLGSFYGSFASPDLFGAARGPSDLHCTWLVDTQDSRRVLLQLELRLGYDDYVQVYEGLGERGDRLLQTLSYRSNHRPVSLEAAQGRLTVAYHARARSAGHGFNATYQVKGYCLPWEQPCGSSSDSDGGSLGDQGCFSEPQRCDGWWHCASGRDEQGCPACPPDQYPCEGGSGLCYTPADRCNNQKSCPDGADEKNCFSCQPGTFHCGTNLCIFETWRCDGQEDCQDGSDEHGCLAAVPRKVITAALIGSLVCGLLLVIALGCAFKLYSLRTQEYRAFETQMTRLEAEFVRREAPPSYGQLIAQGLIPPVEDFPVYSASQASVLQNLRTAMRRQMRRHASRRGPSRRRLGRLWNRLFHRPRAPRGQIPLLTAARPSQTVLGDGFLQPAPGAAPDPPAPLMDTGSTRAAGDRPPSAPGRAPEVGPSGPPLPSGLRDPECRPVDKDRKVCREPLVDGPAPADAPREPCSAQDPHPQVSTASSTLGPHSPEPLGVCRNPPPPCSPMLEASDDEALLVC
For the molecule B1, the binding entry is given as “binds”.

Source of the values: publication PMC8565065.
